Laboratory results reported in PMC12065020.
These are yes or no findings as the source states them, for the method shown. For some assays here: Binding seen in cells or lysates may run through a third protein. Some results given as binding are weak or reduced against the parent protein; the word gives no strength.

Chains of the proteins cited; added tags and fusions are not shown.
UniProt P08670: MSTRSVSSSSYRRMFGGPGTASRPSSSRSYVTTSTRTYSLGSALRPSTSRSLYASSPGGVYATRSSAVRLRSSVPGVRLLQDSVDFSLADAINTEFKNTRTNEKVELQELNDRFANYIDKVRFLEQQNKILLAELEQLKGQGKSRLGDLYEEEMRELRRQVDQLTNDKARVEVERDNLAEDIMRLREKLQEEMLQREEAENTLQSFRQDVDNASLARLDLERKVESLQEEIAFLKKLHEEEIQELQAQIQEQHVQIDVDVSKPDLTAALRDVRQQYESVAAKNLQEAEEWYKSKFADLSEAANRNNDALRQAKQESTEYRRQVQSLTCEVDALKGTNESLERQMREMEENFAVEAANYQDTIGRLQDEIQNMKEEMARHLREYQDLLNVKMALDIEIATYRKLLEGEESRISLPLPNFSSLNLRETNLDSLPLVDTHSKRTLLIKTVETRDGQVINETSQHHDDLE
UniProt P07355: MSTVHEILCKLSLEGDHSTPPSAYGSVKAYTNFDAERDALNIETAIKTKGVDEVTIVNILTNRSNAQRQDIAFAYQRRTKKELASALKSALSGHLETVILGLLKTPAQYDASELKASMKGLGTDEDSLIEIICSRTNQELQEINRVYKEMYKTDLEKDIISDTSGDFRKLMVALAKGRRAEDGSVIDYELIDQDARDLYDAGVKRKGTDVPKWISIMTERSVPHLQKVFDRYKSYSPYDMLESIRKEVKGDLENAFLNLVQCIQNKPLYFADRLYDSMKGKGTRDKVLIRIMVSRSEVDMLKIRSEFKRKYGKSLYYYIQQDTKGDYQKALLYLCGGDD

Tests used:
[1] = biological target: purified vimentin (UniProt P08670); test: ELISA; plate coated with vimentin (or PBS blank), blocked with 5% NFDM; AnxA2 at 1.5 uM or 0 uM, 1 h at RT; detected with anti-His tag antibody, HRP secondary, TMB, absorbance at 450 nm; both purified
[2] = biological target: Annexin A2 (human (endogenous in hGF)) (UniProt P07355); test: co-IP; hGF lysates (IP lysis buffer: 25 mM Tris-HCl pH 7.4, 150 mM NaCl, 1 mM EDTA, 1% NP-40, 5% glycerol) immunoprecipitated with AnxA2 antibody or pre-immune serum, blotted for vimentin; cells with or without IL-1beta (10 ng/mL, 30 min)

Substance | binding [1] | binding [2]
Recombinant human AnxA2 (from UniProt P07355 1-339) | binds | –
Vimentin (from UniProt P08670 1-466) | – | binds
